Experimental data: PubChem BioAssay AID1259254 (NCATS, 2017)

- Assay: 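Finding genes that stop cells copying their DNA twice in one cycle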 (primary screen)
- Cells: human HCT116 colorectal cancer cells
- Knock-down reagent: single siRNA against human genes
- Timing: 3 days
- Detection: 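Nuclei stained with Hoechst and imaged; cell-cycle phase assigned by DNA content; G2 share scaled per plate, non-targeting siRNA 0%, GMNN siRNA 100%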
- Reading the numbers: G2 robust z-score: higher = more G2 cells, more excess DNA replication
- Active means: 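Active siRNAs have a G2 robust z of 5 or more median absolute deviations over the median, which in these data means about 38% or higher of GMNN control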
The whole screen tested about 59,000 reagents; shown is a random part of them. About 1,550 of them (2.6%) count as active. 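G2 share is only a proxy for re-replication; each gene was hit by three separate siRNAs, and active genes were retested.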 A number with no mark means an inactive call. The numbers tell different reagents against one gene apart. Not all columns of the deposit are shown. Not stated in the record: the amount of reagent.

gene symbol,reagent,G2 robust z-score
CDK5R2,1,-0.237
CDK5R2,2,-0.812
CDK5R2,3,-1.51
SFN,1,1.39
SFN,2,6.17 (active)
SFN,3,-0.27
PLAC1,1,3.08
PLAC1,2,-0.0469
PLAC1,3,-0.896
APBA3,1,-0.0754
APBA3,2,1.31
APBA3,3,0.0998
MBD3L2,1,-0.405
MBD3L2,2,-0.513
MBD3L2,3,-0.522
AMY2A,1,-0.927
AMY2A,2,0.138
AMY2A,3,1.52
FCRL6,1,1.08
FCRL6,2,-0.686
FCRL6,3,0.282
ARMCX6,1,-0.705
ARMCX6,2,1.29
ARMCX6,3,-0.573
MAP4K3,1,-1.33
MAP4K3,2,-0.338
MAP4K3,3,-1.08
CACNA1G,1,1.08
CACNA1G,2,-1.52
CACNA1G,3,0.504
MAGEA1,1,-0.175
MAGEA1,2,0.517
MAGEA1,3,2.02
LOC285191,1,-0.178
LOC285191,2,-0.831
LOC285191,3,0.23
NPNT,1,-0.277
NPNT,2,-0.0468
NPNT,3,-0.722
ADAM30,1,4.83
ADAM30,2,-0.334
ADAM30,3,2.72

Continued (7 carried over from the part before).
gene symbol,reagent,G2 robust z-score
LOC285191,3,0.23
NPNT,1,-0.277
NPNT,2,-0.0468
NPNT,3,-0.722
ADAM30,1,4.83
ADAM30,2,-0.334
ADAM30,3,2.72
DUSP3,1,2.08
DUSP3,2,-0.29
DUSP3,3,-0.915
SEC23A,1,0.181
SEC23A,2,1.01
SEC23A,3,-0.691
MAPK1IP1L,1,-0.367
MAPK1IP1L,2,-0.88
MAPK1IP1L,3,0.575
ZNF767P,1,-0.0171
ZNF767P,2,1.83
ZNF767P,3,-0.681
IL1RAPL1,1,-0.651
IL1RAPL1,2,0.314
IL1RAPL1,3,0.117
CNTD1,1,0.053
CNTD1,2,0.533
CNTD1,3,-0.571
HELQ,1,0.972
HELQ,2,1.34
HELQ,3,1.05
FNTB,1,-0.919
FNTB,2,-0.899
FNTB,3,0.1
PGM2L1,1,-0.365
PGM2L1,2,1.75
PGM2L1,3,-0.279
